In US11058703B2, “Application of triacetyl-3-hydroxyphenyladenosine in preparation of pharmaceutical drug for preventing or treating non-alcoholic fatty liver disease” (priority 2015, dated 2021):
For at least one compound, name, drawing or mass did not settle the structure.

Legend:
Type in all cases: in vivo, Syrian golden hamster
[1] = tested on: golden hamster with non-alcoholic fatty liver disease induced by high-fat diet; experiment: Magnetic resonance imaging of golden hamster (subcutaneous and abdominal adipose); details: after administration, compared with model group; FIG. 5
[2] = tested on: golden hamster with non-alcoholic fatty liver disease induced by high-fat diet; experiment: HE pathological staining of liver tissue; details: each dose group of IMM-H007; FIG. 6
[3] = tested on: golden hamster with non-alcoholic fatty liver disease induced by high-fat diet; experiment: Oil Red O staining of liver tissue; details: each dose group of IMM-H007; compared with the model group; FIG. 7

SMILES: CC(=O)OCC1OC(n2cnc3c(Nc4cccc(O)c4)ncnc32)C(OC(C)=O)C1OC(C)=O (stereo not drawn) [IMM-H007, triacetyl-3-hydroxyphenyladenosine]
- Subcutaneous and abdominal adipose by MR examination [1]: subcutaneous and abdominal adipose was reduced
- HE staining of liver tissue [2]: the liver cells were arranged radially around the central vein, and collagenous fibers were regularly distributed in the central vein and the hepatic lobule border zone
- Oil Red O staining of liver tissue (fat deposition in liver cells) [3]: significantly reduced compared with the model group
